Taken from: PubChem BioAssay AID1224826 (NIAID, 2016)

- Screen: 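Knock-downs that raise or lower Tnf reporter signal after endotoxin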 (primary screen)
- Cell system: RAW264.7 G9 macrophages from mouse bearing reporters for p65 (GFP) and the Tnf promoter (mCherry)
- Reagent: siRNA pool against mouse genes, 100 nM
- Duration: 16 h of LPS stimulation, after 2 days of siRNA transfection
- Challenge: bacterial lipopolysaccharide (Salmonella minnesota R595), 10 ng/ml
- Read-out: 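Imaged Tnf reporter mCherry in nuclei, minus background, normalised per plate to the median and expressed as robust z-scores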
- Reading the numbers: Tnf reporter robust z-score: higher = stronger Tnf promoter reporter signal after LPS; Tnf reporter intensity: higher = stronger Tnf promoter reporter signal
- Active means: 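Called active when robust z-score is at most -1.3, matching the median of the Tlr4 knock-down control, or over 3; control wells and wells with under 50 cells never active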
- Meaning of the calls: active = Tnf reporter clearly lowered or raised; inactive = no clear change in Tnf reporter
Shown is a random part of about 17,000 deposited reagents. Over the whole deposit, about 1,110 (6.6%) got an active call. 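Active means lowered or raised reporter signal; replicate intensities are raw and not normalised per plate.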

| target gene | Tnf reporter robust z-score | fewer than 50 cells in well | Tnf reporter intensity, replicate 1 | Tnf reporter intensity, replicate 2 | activity call |
| --- | --- | --- | --- | --- | --- |
| Cachd1 (GeneID 320508) | -0.19 | enough cells in well | 210 | 175 | inactive |
| Or7g22 (GeneID 258558) | 3.74 | enough cells in well | 203 | 291 | active |
| 4632404H12Rik (GeneID 74034) | 2.35 | enough cells in well | 328 | 113 | inactive |
| Art1 (GeneID 11870) | 1.32 | enough cells in well | 241 | 248 | inactive |
| Nt5c3 (GeneID 107569) | 0.03 | enough cells in well | 262 | 170 | inactive |
| Sgca (GeneID 20391) | -0.47 | enough cells in well | 250 | 168 | inactive |
| Mcrip2 (GeneID 68241) | – | fewer than 50 cells per well; well left out of calls | 140 | 170 | inactive |
| Neurod6 (GeneID 11922) | 0.06 | enough cells in well | 239 | 104 | inactive |
| Tfap2d (GeneID 226896) | -0.25 | enough cells in well | 229 | 113 | inactive |
| Nrdc (GeneID 230598) | 0.76 | enough cells in well | 241 | 179 | inactive |
| Baz1a (GeneID 217578) | 2.17 | enough cells in well | 326 | 395 | inactive |
| Flcn (GeneID 216805) | 2 | enough cells in well | 242 | 272 | inactive |
| Vcl (GeneID 22330) | -0.7 | enough cells in well | 164 | 189 | inactive |
| Med17 (GeneID 234959) | -0.97 | enough cells in well | 159 | 135 | inactive |
| Fmod (GeneID 14264) | 0.09 | enough cells in well | 337 | 176 | inactive |
| Or6aa1 (GeneID 258612) | -0.82 | enough cells in well | 129 | 87.9 | inactive |
| Mta3 (GeneID 116871) | 0.25 | enough cells in well | 234 | 121 | inactive |
| Adh1 (GeneID 11522) | 1.89 | enough cells in well | 308 | 240 | inactive |
| Arhgap18 (GeneID 73910) | -0.92 | enough cells in well | 116 | 115 | inactive |
| Or11l3 (GeneID 258373) | 0.16 | enough cells in well | 197 | 122 | inactive |
| Zc3hav1l (GeneID 209032) | 0.58 | enough cells in well | 235 | 168 | inactive |
| Akr1c21 (GeneID 77337) | -0.25 | enough cells in well | 237 | 126 | inactive |
| Ankrd2 (GeneID 56642) | 0.92 | enough cells in well | 291 | 226 | inactive |
| Cd8a (GeneID 12525) | 2.98 | enough cells in well | 436 | 472 | inactive |

Copied from above for reference:
| target gene | Tnf reporter robust z-score | fewer than 50 cells in well | Tnf reporter intensity, replicate 1 | Tnf reporter intensity, replicate 2 | activity call |
| --- | --- | --- | --- | --- | --- |
| Akr1c21 (GeneID 77337) | -0.25 | enough cells in well | 237 | 126 | inactive |
| Ankrd2 (GeneID 56642) | 0.92 | enough cells in well | 291 | 226 | inactive |
| Cd8a (GeneID 12525) | 2.98 | enough cells in well | 436 | 472 | inactive |
